Library screening results

Sequences of proteins named here, by UniProt entry; tags and fusion partners are left off.
UniProt E9BF75, entry or part of it: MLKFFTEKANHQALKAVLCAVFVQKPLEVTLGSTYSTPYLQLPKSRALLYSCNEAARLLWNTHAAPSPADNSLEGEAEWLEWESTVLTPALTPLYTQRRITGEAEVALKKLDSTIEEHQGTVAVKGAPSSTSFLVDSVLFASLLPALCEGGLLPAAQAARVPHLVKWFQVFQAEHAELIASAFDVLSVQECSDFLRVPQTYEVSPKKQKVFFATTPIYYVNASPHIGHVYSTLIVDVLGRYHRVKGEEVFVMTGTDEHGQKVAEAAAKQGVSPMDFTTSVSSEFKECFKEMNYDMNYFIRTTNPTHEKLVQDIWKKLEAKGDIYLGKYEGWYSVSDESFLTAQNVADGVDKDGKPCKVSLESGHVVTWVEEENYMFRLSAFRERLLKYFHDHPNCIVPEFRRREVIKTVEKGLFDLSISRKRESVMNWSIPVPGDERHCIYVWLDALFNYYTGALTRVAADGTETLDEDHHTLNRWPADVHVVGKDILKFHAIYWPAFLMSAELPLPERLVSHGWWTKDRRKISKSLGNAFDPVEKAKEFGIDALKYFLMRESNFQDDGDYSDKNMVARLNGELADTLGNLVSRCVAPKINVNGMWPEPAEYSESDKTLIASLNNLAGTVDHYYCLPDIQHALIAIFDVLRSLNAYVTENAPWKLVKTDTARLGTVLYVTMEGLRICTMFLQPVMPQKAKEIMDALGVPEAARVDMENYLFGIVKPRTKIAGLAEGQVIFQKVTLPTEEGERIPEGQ

From ChEMBL document CHEMBL3988442, “University of Dundee, Small-Polar-MMV Screening Library” (2021).

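Methionyl-tRNA synthetase (putative), Leishmania donovani (UniProt E9BF75). Primary screen of methionyl-tRNA synthetase; the read-out is not stated. The test concentration is not given. The values are filed as inhibition. Of about 68,000 compounds tested this way, about 24 (0.035%) reached 50% or more in at least one test.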

Results are percentages, as filed.
The record does not define 0% and 100%; most values in the screen are far below 50% and negative numbers occur (in some assays of this library far below -100).
The compounds are a random part of those screened.

Compound	Inhibition
COc1cc(C)c(S(=O)(=O)CC(=O)N(C)C2CC2)cc1OC	8.13%
C[C@H]1C[C@H]2CN(C(=O)CCOc3ccccc3)CC[C@H]2O1	8.458%
c1cncc(N2CCC(c3ccncc3)CC2)c1	7.188%
COCCC1(CO)CCCN(CCCc2ccccc2)C1 (stereo not shown)	5.674%
Cc1nc(C)n(CCNC2CCN(c3ncnc4c(C)csc34)CC2)n1	10.7%
Cc1csc(CN(CC2CCCO2)C(=O)c2occc2C)n1 (stereo not shown)	7.483%
O=C(NCC1CC1)C1=NOC2(CCN(Cc3ccsc3)C2)C1 (stereo not shown)	5.263%
CCNc1ncc(C(=O)NCC2OCCc3ccccc32)cn1 (stereo not shown)	4.632%
Cc1cc(C)n(C2CCCN(C(=O)c3csc(C4CC4)n3)C2)n1 (stereo not shown)	7.429%
CCN(Cc1nc2c(cnn2C)c(=O)[nH]1)Cc1cccs1	13.19%
Cc1ccc(CNC2CCCc3c2cnn3Cc2ccccc2)s1 (stereo not shown)	17.53%
Cc1nn(C)c2c(=O)n(C)c(NCC3CCCO3)nc12 (stereo not shown)	7.368%
COCCN(C)C(=O)Nc1ccc2c(ccn2CCOC)c1	14.08%
COc1ccccc1-n1nc(C(C)C)nc1Cc1nnc(N)s1	17.49%
O=C1CCC2(CCOC2)CN1Cc1nc2ccc(Cl)cc2[nH]1 (stereo not shown)	11.69%
CC(C)c1cccc(S(=O)(=O)NCCCN2CCC(O)CC2)c1	0%
CN(C)C(=O)N1CCC2(CC1)COCCN(c1ncccn1)C2	16.24%
COC(C(=O)N1CCCN(Cc2cscn2)CC1)c1ccccc1 (stereo not shown)	11.22%
Cc1nc(Nc2nnc(C)s2)cc(C2CCCN2)n1 (stereo not shown)	9.627%
N#Cc1cccc(CN2Cc3nccn3CC(CN3CCCC3)C2)c1 (stereo not shown)	-1.84%
O=C(CC1CNCCO1)N1CCC(c2cc(N3CCCC3)ncn2)CC1 (stereo not shown)	6.859%
O=C(NCc1nnc2ccccn12)N1CCOC(c2cccs2)C1 (stereo not shown)	11.34%
O=C1CC2(CCN(C(=O)Cc3cc4c(cc3Cl)OCCO4)C2)C(=O)N1 (stereo not shown)	3.064%
COCCNC(=O)Cn1c(-c2ccc(F)cc2)nc(C)c(CCO)c1=O	14.91%
O=C(NCc1ccco1)[C@@]12CCO[C@@H]1CCN(c1ncccn1)C2	14.81%
COc1cn(-c2ccccc2)nc1C(=O)NCCN1CCCC(C)C1 (stereo not shown)	17.38%
COCCCC(=O)NCc1cccc(NC(N)=O)c1	10.82%
CC(O)CN1CCN(C(=O)c2ccc(N3CCCC3)nn2)CC1 (stereo not shown)	13.86%
O=C(NCCSc1cnn[nH]1)c1c[nH]nc1C1CCCCC1	19.51%
Cc1ccccc1NC(=O)Nc1c[nH]c(=O)[nH]c1=O	15.25%
Cc1cccc(N(C)S(=O)(=O)c2cc(C(=O)O)cs2)c1	13.11%
CNC(=O)CCNC(=O)c1ccccc1N1CCOCC1	18.44%
Cc1nn(C)cc1C1CC(=O)Nc2c1cnn2C(C)C (stereo not shown)	8.527%
COCCN1C(=O)C2(CCC(C(=O)Nc3ccccn3)CC2)N=C1C (stereo not shown)	8.711%
Cn1ncc2c1C(COCC1CC1)CN(Cc1ccoc1)C2 (stereo not shown)	19.19%
CCNC(=O)NC(=O)CNC(C)(C)c1ccc2c(c1)OCO2	17.22%
CNC(=O)C1(c2cnccn2)CCCN1C(=O)c1cccc(C)n1 (stereo not shown)	6.25%
CCc1ccc2nc(C)cc(C(=O)N[C@@H]3CCCNC3)c2c1	16.62%
CC(C)c1nnc(N2C[C@@H](CN(C)CCO)[C@@H](CO)C2)s1	-3.484%
COc1ccc(-c2nnsc2C(=O)N2CCC(C(N)=O)CC2)cc1	9.651%
Cc1csc(CNc2nc3c(s2)c(C)nn3C)n1	7.216%
Cc1nc(CN2CCCn3c(nc(Cn4cncn4)cc3=O)C2)cs1	1.25%
Cc1noc(C)c1CC(=O)N1CCc2sccc2C1	16.27%
FC(F)(F)CCc1ncnn1-c1ccc2c(c1)OCO2	9.622%
Cc1nnc(CN(Cc2ccc(Cl)c(Cl)c2)C(C)C)o1	12.03%
CCCc1noc(CN2CCC(C(=O)Nc3cnn(CC)c3)CC2)n1	13.68%
COc1ccccc1N1CCN(C(=O)CCn2nnnc2C)CC1(C)C	12.24%
COCCN1CCC2(CC1)CN(C(=O)Cc1cccnc1)CCO2	10.64%
CCN(Cc1ccoc1)C(=O)NC1CCN(C(=O)OC(C)(C)C)C1 (stereo not shown)	4.569%
COCc1cnc2n1CCN(C(=O)c1cc3cc(Cl)ccc3o1)C2C (stereo not shown)	3.361%
Cc1ccc(C(C)(C)CNC(=O)NC(C)Cn2cncn2)cc1 (stereo not shown)	12.21%
COCCCN1CCCC12CCN(Cc1cccnc1OC)CC2	5.435%
O=C(COCc1ccccc1)N1CCN(c2ccc(Cl)cn2)CC1	7.219%
COCc1nccc(C2CCCN(Cc3ccc(C#N)cc3)C2)n1 (stereo not shown)	14.25%
CC(C)N1C(=O)CN(CCOCCO)CC1(C)C	8.086%
Cc1ccc(Cl)cc1N1CCN(CC(=O)NCc2ccco2)CC1	19.6%
Cc1ccccc1CN1CCCC1c1cccc(Nc2nccs2)n1 (stereo not shown)	12.79%
Fc1ccc(-c2c[nH]c([C@@H]3COCCN3)n2)cc1	10.53%
CCc1nc(C2CCCN2CC(=O)N2CCc3ccccc32)no1 (stereo not shown)	25.7%
CCCc1n[nH]c(C2CN(C(=O)c3cncnc3C)CCO2)n1 (stereo not shown)	9.777%
CC(C)N(C)C(=O)C1=NOC2(CCN(C(=O)c3ccccn3)C2)C1 (stereo not shown)	18.5%
Cc1cc(C(=O)NCc2ccc(N3CCCC(C(N)=O)C3)cc2)on1 (stereo not shown)	12.32%
COCCC(=O)N1CCCC(CCC(=O)NCc2ccccc2F)C1 (stereo not shown)	9.244%
CCc1nnsc1C(=O)NCCc1nnc2n1CCC2	14.8%
CC(C)SCc1cccc(NC(=O)NC(C)c2nc[nH]n2)c1 (stereo not shown)	12.59%
CC(=O)NC[C@]1(O)CCN(C(=O)c2ccc3c(c2)OCO3)C[C@H]1O	1.176%
N#Cc1ccccc1C(=O)N1C[C@@H](CN2CCOCC2)[C@@H](CO)C1	13.38%
CC(C)c1nnc2n1CCN(C(=O)c1cc3cc(F)ccc3[nH]1)C2	22.51%
c1cnc(N2CCCC3(CCN(CC4CC4)C3)C2)nc1 (stereo not shown)	14.29%
CCN1CC2(CC1=O)CN(Cc1ccco1)CCN(C(=O)N(C)C)C2 (stereo not shown)	18.5%
Cc1cccc(C(C)CNC(=O)N2CCOCC3(CCOCC3)C2)c1 (stereo not shown)	4.076%

The last 6 entries again:

- CC(=O)NC[C@]1(O)CCN(C(=O)c2ccc3c(c2)OCO3)C[C@H]1O | 1.176%
- N#Cc1ccccc1C(=O)N1C[C@@H](CN2CCOCC2)[C@@H](CO)C1 | 13.38%
- CC(C)c1nnc2n1CCN(C(=O)c1cc3cc(F)ccc3[nH]1)C2 | 22.51%
- c1cnc(N2CCCC3(CCN(CC4CC4)C3)C2)nc1 (stereo not shown) | 14.29%
- CCN1CC2(CC1=O)CN(Cc1ccco1)CCN(C(=O)N(C)C)C2 (stereo not shown) | 18.5%
- Cc1cccc(C(C)CNC(=O)N2CCOCC3(CCOCC3)C2)c1 (stereo not shown) | 4.076%